In the supplement of paper PMC10849652:
The other results are listed elsewhere or left out.

Sequences of proteins named here, by UniProt entry; tags and fusion partners are left off. A change or cut given only in a name is not applied to a line headed by its entry.
UniProt Q10567: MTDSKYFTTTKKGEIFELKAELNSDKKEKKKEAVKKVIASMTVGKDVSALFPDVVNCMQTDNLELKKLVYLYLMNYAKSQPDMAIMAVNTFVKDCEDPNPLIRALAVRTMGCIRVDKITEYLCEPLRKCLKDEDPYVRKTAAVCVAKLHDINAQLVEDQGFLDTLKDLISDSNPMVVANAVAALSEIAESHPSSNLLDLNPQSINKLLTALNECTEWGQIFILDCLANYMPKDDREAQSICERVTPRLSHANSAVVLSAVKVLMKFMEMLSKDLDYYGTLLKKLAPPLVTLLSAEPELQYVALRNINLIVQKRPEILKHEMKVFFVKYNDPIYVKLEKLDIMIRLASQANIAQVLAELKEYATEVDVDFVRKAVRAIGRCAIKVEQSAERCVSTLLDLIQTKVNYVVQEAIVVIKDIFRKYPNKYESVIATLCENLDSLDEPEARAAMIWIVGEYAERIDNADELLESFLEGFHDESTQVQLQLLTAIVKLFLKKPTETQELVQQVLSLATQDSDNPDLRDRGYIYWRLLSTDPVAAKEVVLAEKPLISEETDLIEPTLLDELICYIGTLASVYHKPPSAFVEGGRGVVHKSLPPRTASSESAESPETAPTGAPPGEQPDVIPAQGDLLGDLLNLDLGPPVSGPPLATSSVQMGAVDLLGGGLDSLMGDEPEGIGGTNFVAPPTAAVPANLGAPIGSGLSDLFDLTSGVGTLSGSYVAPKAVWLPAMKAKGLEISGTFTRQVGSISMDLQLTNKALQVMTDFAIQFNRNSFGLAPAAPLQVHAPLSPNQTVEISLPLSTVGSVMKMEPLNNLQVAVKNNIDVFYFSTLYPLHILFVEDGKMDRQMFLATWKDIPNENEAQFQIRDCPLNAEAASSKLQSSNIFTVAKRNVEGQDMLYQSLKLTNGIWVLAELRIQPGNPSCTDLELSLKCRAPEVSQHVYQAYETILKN
UniProt Q8N6S4: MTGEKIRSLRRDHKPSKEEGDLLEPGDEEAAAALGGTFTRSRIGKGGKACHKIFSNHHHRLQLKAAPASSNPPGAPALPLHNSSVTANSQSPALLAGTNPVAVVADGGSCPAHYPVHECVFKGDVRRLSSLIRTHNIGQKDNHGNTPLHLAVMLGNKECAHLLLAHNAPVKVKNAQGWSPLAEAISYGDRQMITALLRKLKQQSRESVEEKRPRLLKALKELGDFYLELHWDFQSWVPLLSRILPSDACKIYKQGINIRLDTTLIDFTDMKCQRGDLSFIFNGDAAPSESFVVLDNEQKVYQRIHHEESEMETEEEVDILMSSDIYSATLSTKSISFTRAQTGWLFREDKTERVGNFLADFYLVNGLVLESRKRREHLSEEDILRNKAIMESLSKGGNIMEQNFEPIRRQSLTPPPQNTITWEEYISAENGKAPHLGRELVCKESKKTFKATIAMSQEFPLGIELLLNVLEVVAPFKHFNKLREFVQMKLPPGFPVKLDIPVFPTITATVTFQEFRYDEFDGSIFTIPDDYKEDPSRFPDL
UniProt Q6AI12: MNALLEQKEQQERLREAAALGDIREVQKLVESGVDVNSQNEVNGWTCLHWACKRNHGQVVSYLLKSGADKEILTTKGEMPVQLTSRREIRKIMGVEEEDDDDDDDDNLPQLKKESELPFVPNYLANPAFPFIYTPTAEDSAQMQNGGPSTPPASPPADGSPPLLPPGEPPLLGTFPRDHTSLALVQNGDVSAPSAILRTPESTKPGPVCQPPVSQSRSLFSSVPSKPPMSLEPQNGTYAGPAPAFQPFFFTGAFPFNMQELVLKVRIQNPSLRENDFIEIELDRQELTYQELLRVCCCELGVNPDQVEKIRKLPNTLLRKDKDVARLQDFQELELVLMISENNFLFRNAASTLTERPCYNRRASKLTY
UniProt Q2TAA5: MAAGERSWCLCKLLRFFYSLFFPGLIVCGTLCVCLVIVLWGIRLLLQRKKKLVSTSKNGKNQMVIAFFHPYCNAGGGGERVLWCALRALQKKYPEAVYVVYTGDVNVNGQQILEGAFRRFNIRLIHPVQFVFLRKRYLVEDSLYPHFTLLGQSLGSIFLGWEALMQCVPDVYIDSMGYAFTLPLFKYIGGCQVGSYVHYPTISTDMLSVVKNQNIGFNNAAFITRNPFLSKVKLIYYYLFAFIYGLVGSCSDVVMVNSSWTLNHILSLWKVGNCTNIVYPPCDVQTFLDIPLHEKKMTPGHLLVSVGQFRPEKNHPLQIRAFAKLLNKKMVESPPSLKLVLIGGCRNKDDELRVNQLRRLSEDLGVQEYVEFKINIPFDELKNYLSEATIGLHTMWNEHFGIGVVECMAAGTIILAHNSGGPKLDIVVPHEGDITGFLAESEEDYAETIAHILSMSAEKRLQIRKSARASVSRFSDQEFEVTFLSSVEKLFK
UniProt Q63HQ0: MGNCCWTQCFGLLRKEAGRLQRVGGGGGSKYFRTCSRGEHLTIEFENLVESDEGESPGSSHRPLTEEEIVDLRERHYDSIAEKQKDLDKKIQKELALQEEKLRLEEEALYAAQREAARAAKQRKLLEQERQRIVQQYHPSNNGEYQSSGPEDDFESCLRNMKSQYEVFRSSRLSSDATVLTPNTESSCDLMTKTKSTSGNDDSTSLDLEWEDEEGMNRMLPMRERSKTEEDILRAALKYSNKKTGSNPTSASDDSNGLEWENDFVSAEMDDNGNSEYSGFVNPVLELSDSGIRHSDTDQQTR
UniProt P13196: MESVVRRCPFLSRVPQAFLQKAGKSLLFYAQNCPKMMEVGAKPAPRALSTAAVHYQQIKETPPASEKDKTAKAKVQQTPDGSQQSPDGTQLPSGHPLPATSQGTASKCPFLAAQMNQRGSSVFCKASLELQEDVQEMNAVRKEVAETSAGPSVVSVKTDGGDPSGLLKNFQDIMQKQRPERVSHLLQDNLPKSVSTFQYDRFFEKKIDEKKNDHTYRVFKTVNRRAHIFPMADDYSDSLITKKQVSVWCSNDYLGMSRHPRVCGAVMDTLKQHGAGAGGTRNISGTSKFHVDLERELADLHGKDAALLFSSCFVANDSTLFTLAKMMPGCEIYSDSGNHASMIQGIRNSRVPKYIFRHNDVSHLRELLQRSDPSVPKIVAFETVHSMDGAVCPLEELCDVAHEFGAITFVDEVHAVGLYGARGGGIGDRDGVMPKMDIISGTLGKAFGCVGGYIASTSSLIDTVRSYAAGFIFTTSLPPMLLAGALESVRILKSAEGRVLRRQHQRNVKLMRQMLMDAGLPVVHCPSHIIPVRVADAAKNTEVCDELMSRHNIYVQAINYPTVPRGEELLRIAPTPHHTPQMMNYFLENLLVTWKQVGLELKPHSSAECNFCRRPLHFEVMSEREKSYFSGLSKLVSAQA
UniProt Q9ULJ7: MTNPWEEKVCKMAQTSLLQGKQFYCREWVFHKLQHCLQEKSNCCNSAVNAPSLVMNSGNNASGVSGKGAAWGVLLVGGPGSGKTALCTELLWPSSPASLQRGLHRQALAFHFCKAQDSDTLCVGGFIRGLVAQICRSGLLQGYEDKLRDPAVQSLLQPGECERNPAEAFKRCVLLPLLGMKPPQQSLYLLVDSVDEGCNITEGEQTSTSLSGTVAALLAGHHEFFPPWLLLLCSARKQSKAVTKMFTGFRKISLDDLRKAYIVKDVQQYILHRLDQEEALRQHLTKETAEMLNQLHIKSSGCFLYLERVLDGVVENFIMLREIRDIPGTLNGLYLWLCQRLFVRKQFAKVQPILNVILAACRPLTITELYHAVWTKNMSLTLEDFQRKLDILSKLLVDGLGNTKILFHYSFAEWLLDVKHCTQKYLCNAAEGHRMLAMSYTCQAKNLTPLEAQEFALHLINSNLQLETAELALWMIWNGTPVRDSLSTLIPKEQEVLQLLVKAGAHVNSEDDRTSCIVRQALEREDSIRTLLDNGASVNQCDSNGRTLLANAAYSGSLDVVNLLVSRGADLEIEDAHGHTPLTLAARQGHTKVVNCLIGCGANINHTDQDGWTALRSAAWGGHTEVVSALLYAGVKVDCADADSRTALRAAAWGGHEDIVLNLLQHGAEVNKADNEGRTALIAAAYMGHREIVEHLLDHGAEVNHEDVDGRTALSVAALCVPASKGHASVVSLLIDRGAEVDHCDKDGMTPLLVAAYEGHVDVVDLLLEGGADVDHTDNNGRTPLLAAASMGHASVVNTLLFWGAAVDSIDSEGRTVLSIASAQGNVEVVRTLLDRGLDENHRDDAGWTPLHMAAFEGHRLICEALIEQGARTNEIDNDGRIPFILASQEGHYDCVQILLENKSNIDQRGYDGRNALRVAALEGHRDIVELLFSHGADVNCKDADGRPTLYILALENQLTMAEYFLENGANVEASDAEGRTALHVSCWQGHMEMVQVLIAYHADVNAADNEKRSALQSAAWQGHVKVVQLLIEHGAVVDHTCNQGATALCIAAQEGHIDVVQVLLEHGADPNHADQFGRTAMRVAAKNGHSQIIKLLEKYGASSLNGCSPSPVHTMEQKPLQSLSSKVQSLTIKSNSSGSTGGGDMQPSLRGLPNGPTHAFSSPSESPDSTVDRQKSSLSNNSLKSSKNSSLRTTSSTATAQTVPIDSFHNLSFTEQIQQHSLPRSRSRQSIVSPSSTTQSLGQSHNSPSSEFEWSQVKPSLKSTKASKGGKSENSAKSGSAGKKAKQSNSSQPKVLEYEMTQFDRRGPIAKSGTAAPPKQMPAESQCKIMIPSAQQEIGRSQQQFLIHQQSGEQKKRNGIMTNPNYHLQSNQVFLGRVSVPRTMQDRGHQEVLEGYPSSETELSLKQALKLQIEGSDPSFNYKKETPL
UniProt Q8N7Z5: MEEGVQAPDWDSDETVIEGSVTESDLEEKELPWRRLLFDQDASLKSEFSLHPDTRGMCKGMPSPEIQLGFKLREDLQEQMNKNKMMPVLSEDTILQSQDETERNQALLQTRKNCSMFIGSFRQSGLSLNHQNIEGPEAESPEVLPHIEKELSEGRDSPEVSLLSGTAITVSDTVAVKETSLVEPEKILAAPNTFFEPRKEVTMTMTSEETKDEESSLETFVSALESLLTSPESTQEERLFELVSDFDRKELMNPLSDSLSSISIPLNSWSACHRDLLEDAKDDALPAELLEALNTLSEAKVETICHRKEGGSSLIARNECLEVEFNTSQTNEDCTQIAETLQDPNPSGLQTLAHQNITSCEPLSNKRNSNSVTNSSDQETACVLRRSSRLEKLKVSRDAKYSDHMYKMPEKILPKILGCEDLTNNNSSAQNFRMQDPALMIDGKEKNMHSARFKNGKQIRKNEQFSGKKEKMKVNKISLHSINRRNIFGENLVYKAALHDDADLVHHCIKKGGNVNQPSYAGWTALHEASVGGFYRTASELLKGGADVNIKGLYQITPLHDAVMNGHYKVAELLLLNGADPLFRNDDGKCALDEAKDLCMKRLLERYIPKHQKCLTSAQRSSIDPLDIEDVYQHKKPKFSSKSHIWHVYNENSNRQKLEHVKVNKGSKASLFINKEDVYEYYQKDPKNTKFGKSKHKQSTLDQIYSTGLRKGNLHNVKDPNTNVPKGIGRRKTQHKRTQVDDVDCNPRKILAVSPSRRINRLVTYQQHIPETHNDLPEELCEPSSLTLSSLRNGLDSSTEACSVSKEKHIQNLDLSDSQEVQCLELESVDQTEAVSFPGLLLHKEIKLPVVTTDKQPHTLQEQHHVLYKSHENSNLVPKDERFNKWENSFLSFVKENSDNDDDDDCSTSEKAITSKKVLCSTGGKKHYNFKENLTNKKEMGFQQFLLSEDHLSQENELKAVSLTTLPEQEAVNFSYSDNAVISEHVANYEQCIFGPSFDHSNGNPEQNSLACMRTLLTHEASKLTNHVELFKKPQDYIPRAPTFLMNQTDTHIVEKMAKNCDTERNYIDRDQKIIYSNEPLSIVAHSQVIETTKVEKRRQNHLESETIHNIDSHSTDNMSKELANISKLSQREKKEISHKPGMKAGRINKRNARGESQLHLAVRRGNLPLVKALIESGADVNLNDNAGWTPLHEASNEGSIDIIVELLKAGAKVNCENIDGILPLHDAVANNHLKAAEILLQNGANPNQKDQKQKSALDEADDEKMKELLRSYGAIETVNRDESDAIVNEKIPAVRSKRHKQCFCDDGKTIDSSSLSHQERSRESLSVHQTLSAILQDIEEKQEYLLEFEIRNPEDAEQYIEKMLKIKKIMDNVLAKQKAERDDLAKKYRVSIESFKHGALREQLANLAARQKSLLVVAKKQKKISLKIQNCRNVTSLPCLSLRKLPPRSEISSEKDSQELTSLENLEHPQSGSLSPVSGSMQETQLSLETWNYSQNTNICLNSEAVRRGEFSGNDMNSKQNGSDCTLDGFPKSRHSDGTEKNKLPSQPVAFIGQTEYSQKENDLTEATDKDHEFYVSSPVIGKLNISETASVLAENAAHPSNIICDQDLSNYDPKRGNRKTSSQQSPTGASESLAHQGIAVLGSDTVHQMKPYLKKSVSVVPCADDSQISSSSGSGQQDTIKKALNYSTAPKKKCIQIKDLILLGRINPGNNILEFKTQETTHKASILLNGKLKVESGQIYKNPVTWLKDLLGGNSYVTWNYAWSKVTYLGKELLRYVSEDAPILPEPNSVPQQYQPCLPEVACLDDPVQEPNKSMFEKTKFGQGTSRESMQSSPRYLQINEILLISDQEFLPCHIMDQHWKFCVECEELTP

Legend:
Assay in all cases: log2 fold change, soluble protein after heating vs DMSO (PISA); higher = thermal stabilisation; K562 lysate, 10 uM; active = over 0.2 and 3.5 SD of the protein, either way, in both replicates (recomputed)
[1] = compound: CC(=O)c1cnc2ccc(-c3cc(Cl)c(O)c(Cl)c3)nc2c1N[C@H]1CC[C@H](CN(C)C)CC1
Procedure, shortened: (§1)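 Log-two fold change in thermal stability relative to solvent controls is reported from duplicates. For each sample, crude K562 extract from dounce-homogenised pellets in PBS pH 7.4 with 1 mM MgCl2, at 1 mg/mL protein, was treated with 10 μM compound for 30 min. Aliquots heated for 3 min across 48°C-58°C were pooled, brought to 0.5% NP-40 at 4°C and cleared at 21,000xg for 90 min. The supernatant was quantified by TMTpro 16plex LC-MS/MS with channel sums equalised.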

[2] = compound: CC(C)(C)Cn1c(N)nc2ccc(-c3[nH]c(C(C)(C)C)nc3-c3ccc(F)cc3)nc21 [ralimetinib]
Procedure, shortened: as §1

[3] = compound: CC(C)(O)CC(=O)NCCn1ccc2ncnc(Nc3ccc(Oc4cccc(C(F)(F)F)c4)c(Cl)c3)c21
Procedure, shortened: as §1

[4] = compound: CC(C)C1=C2N=C(C=C(N2N=C1)NCC3=CC=CC=C3)NCCCCCCN
Procedure, shortened: as §1

[5] = compound: CC1=C(C(CC(=O)N1)C2=CC=C(C=C2)C(F)(F)F)C(=O)NC3=C(C=C4C(=C3)C=NN4)F
Procedure, shortened: as §1

[6] = compound: CC1=C(C2=C(C=C1)C(=O)C3=CC=CC=C3N2CCCN)C
Procedure, shortened: as §1

[7] = compound: CC1=C(C=C(C=C1)NC(=O)C2=CC(=CC=C2)C(C)(C)C#N)NC3=CC4=C(C=C3)N=CN(C4=O)C
Procedure, shortened: as §1

[8] = compound: CC1=C(C=C(C=C1)NC(=O)C2=CC(=CC=C2)N(C)C)NC(=O)C3=CC=C(C=C3)O
Procedure, shortened: as §1

[9] = compound: CC1=CC=C(C=C1)SC2=C3C=C(SC3=CN=C2)C(=O)N
Procedure, shortened: as §1

[10] = compound: C=CC(=O)N1CCC[C@@H](n2nc(-c3ccc(Oc4ccccc4)cc3)c3c(N)ncnc32)C1 [ibrutinib]
Procedure, shortened: as §1

Measured: log2 fold change

ANAPC16 (UniProt Q96DE5)
inactive: [1] -0.052 | [2] 0.052 | [3] 0.008 | [4] 0.028 | [5] 0.111 | [6] -0.05 | [7] 0.079 | [8] -0.03 | [9] 0.075

ANKLE2 (UniProt Q86XL3)
inactive: [10] 0.005 | [2] -0.009 | [3] -0.049 | [4] -0.046 | [5] 0.042 | [6] 0.037 | [7] -0.002 | [8] 0.029

AP2S1 (UniProt M0QZ21)
inactive: [10] -0.125 | [1] -0.084 | [9] -0.086

AP1B1 isoform 3 (UniProt Q10567)
inactive: [10] 0.002 | [2] -0.111 | [3] 0.172 | [7] 0.213 | [8] -0.14

ANKRD29 (UniProt Q8N6D5)
inactive: [10] 0.022 | [1] -0.047 | [4] 0.031 | [5] -0.198 | [6] -0.127 | [7] 0.291 | [9] -0.059

ANAPC11 (UniProt Q9NYG5)
inactive: [10] -0.154 | [2] 0.016 | [3] 0.083 | [6] 0.196 | [7] 0.12 | [8] 0.031

ANKRD13C (UniProt Q8N6S4)
inactive: [10] -0.054 | [2] 0 | [3] -0.183 | [8] -0.024

AMBRA1 isoform 5 (UniProt Q9C0C7)
inactive: [1] 0.119 | [2] -0.058 | [3] -0.066 | [4] 0.033 | [5] -0.137 | [6] -0.049 | [7] -0.031 | [8] 0.022 | [9] 0.185

ANKRD40 (UniProt Q6AI12)
inactive: [10] 0.008 | [2] 0.062 | [3] 0.05 | [4] 0.051 | [5] 0.027 | [6] -0.231 | [7] 0.075 | [8] 0.087

ALG11 (UniProt Q2TAA5)
inactive: [10] -0.339 | [2] 0.03 | [3] 0.108 | [4] -0.027 | [5] 0.182 | [6] -0.005 | [7] -0.082 | [8] -0.014

AP1AR (UniProt Q63HQ0)
inactive: [10] 0.016 | [1] 0.016 | [2] -0.002 | [3] 0.036 | [4] 0.03 | [5] -0.063 | [7] 0.027 | [8] 0.085 | [9] 0.004

ALAS1 (UniProt P13196)
inactive: [10] -0.055 | [1] -0.05 | [2] -0.048 | [3] -0.041 | [5] 0.068 | [6] 0.063 | [8] 0.019 | [9] 0.084

ANKRD50 (UniProt Q9ULJ7)
inactive: [1] 0.02 | [2] -0.022 | [3] 0.031 | [4] -0.35 | [5] -0.046 | [7] 0.18 | [8] 0 | [9] -0.056

ANKRD31 (UniProt Q8N7Z5)
inactive: [10] -0.027 | [1] 0.208 | [6] -0.084 | [7] -0.157 | [9] -0.115
